Measurements from PubChem BioAssay AID1487 (National Center for Advancing Translational Sciences (NCATS), 2009).
This is one part of the list. The main result of the screen is listed elsewhere. These columns were measured beside it and carry no call. The list favours compounds with an active or inconclusive main result. Words in brackets tell the shape of the fitted curve; partial curves, single points and poor fits give uncertain potencies.

Experiment: qHTS Assay for Modulators of Lamin A Splicing
Details: HeLa LMNA splicing GFP/RFP minigene ratio, 48 h
In short: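 Read-out is the ratio of GFP to DsRed2 object intensity, acquired by 488 nm laser-scanning cytometry on HeLa lamin A-EGFP minigene reporter cells. Compound incubation 48 hrs at 37 °C in Opti-MEM with 2% FBS; DMSO 0.5% final.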

[1] = measured here: RFP viability control channel
[2] = measured here: GFP splicing reporter channel

SMILES | AC50 [1] | AC50 [2]
CNS(=O)(=O)c1ccc(C)c(S(=O)(=O)NC)c1 | 0.398 µM [rising, full curve, poor fit] | –
COc1cc2[nH]c(=O)n(Cc3ccc(C(=O)NC4CCN(Cc5ccccc5)CC4)cc3)c(=O)c2cc1OC | – | 11.2 µM [falling, partial curve]
COc1ccc(C(=O)/C=C/c2ccc(OC(=O)c3cc(OC)c(OC)c(OC)c3)cc2)cc1 | 25.1 µM [falling, partial curve] | 0.02 µM [falling, full curve, poor fit]
O=C(NC(CO)Cc1ccc([N+](=O)[O-])cc1)C(Cl)Cl (centres undefined) | 28.2 µM [rising, single point] | –
COc1ccc(C)cc1-n1nnnc1SCC(=O)N1CCC(C(=O)Nc2nccs2)CC1 | 3.98 µM [rising, full curve] | 6.31 µM [rising, full curve]
COc1ccc2c(c1)c(=O)c(C(=O)c1ccccc1)cn2Cc1ccccc1 | 14.1 µM [rising, partial curve] | –
Cc1ccc(OCC(=O)N2CCc3ccccc32)cc1 | 35.5 µM [rising, single point] | 35.5 µM [rising, single point]
O=C(Oc1ccc(=O)n(-c2ccccc2)n1)c1ccc(F)cc1 | 0.0141 µM [rising, full curve, poor fit] | –
Cc1nn(-c2ccc(F)cc2F)c2c1-c1nc(N3CCCC3)ncc1CC2 | 35.5 µM [rising, single point] | 22.4 µM [rising, single point]
CCCCN(C)CCCNC(=O)C1CC(=O)N(Cc2ccc(OC)cc2)C1 (centres undefined) | 5.62 µM [falling, partial curve, poor fit] | –
COc1ccc(N2CCN(c3oc(Cc4ccccc4)nc3C#N)CC2)cc1 | 35.5 µM [falling, single point] | 35.5 µM [falling, single point]
Cc1ccc(N2C(S)=C(C#N)C(=O)NC23CCCCC3)cc1 | – | 2.82 µM [falling, partial curve, poor fit]
CC1CCN(CC(=O)Nc2cccc(C(=O)Nc3cccc(C(F)(F)F)c3)c2)CC1 | 14.1 µM [rising, single point] | –
CCCNC(=O)c1cnc2c(-c3ccc(OCC)c(OCC)c3)c(C)nn2c1-c1ccccc1 | – | 0.0447 µM [falling, full curve, poor fit]
CCOC(=O)N1CCC(NC(=O)c2cc(C(=O)NCc3cccc(Cl)c3)ccc2CO)CC1 | 14.1 µM [rising, partial curve] | –
COc1cccc(C2CC(=O)C3=C(C2)Nc2ccccc2N(C(=O)CCC(=O)O)C3c2ccc(F)cc2)c1 (centres undefined) | – | 2 µM [rising, partial curve]
CS(=O)(=O)N(CC(=O)N1CCN(c2cccc(Cl)c2)CC1)C1CCCCC1 | 14.1 µM [rising, partial curve] | –
O=C(CNc1ccc(Cl)cc1)NNC(=S)NCc1ccccc1 | 2 µM [falling, partial curve] | 2 µM [falling, partial curve]
CCc1nnc(NC(=O)CC(CN(C)S(=O)(=O)c2ccccc2)c2ccccc2)s1 (centres undefined) | 5.62 µM [rising, single point] | –
Cc1ccc(C)c(OCCN2C(=O)NC3(CCc4ccccc4C3)C2=O)c1 (centres undefined) | 7.94 µM [rising, partial curve] | 7.08 µM [rising, partial curve]
O=[N+]([O-])c1ccc(-c2csc(N3CCc4ccccc4C3)n2)cc1 | – | 5.62 µM [falling, partial curve, poor fit]
Cc1cc(CN2CCCC(CNC(=O)c3ccc(F)cc3)C2)cc(C)c1O (centres undefined) | 0.794 µM [falling, full curve, poor fit] | –
COc1ccc2nc(NC(=O)c3cc(S(=O)(=O)N4CCOCC4)ccc3C)sc2c1 | 35.5 µM [rising, single point] | –
O=C(CN1CCN(C(=O)c2ccco2)CC1)Nc1ccc(Cl)c(S(=O)(=O)N2CCOCC2)c1 | – | 0.00708 µM [rising, full curve, poor fit]
COc1ccc(/C=C/C(=O)c2ccc(Cl)s2)cc1O | 35.5 µM [falling, single point] | 35.5 µM [falling, single point]
O=C(NC1CCCc2ccccc21)C1CCN(S(=O)(=O)c2cccc(C(F)(F)F)c2)CC1 (centres undefined) | 17.8 µM [rising, partial curve] | 10 µM [rising, partial curve]
N#Cc1nc(COc2cccc(Cl)c2)oc1NCc1ccncc1 | 11.2 µM [rising, single point] | 12.6 µM [rising, partial curve]

Some values from above:
AC50 [2] with O=C(CN1CCN(C(=O)c2ccco2)CC1)Nc1ccc(Cl)c(S(=O)(=O)N2CCOCC2)c1 is entered as 0.00708 µM [rising, full curve, poor fit]
AC50 [1] with O=C(Oc1ccc(=O)n(-c2ccccc2)n1)c1ccc(F)cc1 is entered as 0.0141 µM [rising, full curve, poor fit]

Full records, quoted from the list:
N#Cc1nc(COc2cccc(Cl)c2)oc1NCc1ccncc1 in the list: AC50 [1]: 11.2 µM [rising, single point]; AC50 [2]: 12.6 µM [rising, partial curve]
COc1cc2[nH]c(=O)n(Cc3ccc(C(=O)NC4CCN(Cc5ccccc5)CC4)cc3)c(=O)c2cc1OC in the list: AC50 [2]: 11.2 µM [falling, partial curve]

(continued)

SMILES | AC50 [1] | AC50 [2]
Cc1cc(S(=O)(=O)NCc2ccccc2)ccc1OCC(=O)NCC1CCCO1 (centres undefined) | 2.51 µM [falling, single point] | –
COc1ccc(CCNc2oc(COc3ccccc3F)nc2C#N)cc1OC | 14.1 µM [rising, single point] | 10 µM [rising, partial curve]
Cc1ccc(S(=O)(=O)N2CCCC(C(=O)NCc3cccnc3)C2)cc1Cl (centres undefined) | 3.98 µM [rising, full curve] | 5.01 µM [rising, full curve, poor fit]
N#C/C(=C\c1ccc(C(=O)O)cc1)c1nc2sc3c(c2c(=O)[nH]1)CCCC3 | 0.0708 µM [rising, full curve, poor fit] | 0.178 µM [rising, full curve]
Cc1cc(NS(=O)(=O)c2ccc(NC(=S)NC(=O)c3ccc(C(C)(C)C)cc3)cc2)no1 | – | 4.47 µM [rising, single point]
Cc1ccccc1-c1nc(SCC(=O)N(C)c2ccccc2)c2c(=O)n(C)c(=O)n(C)c2n1 | – | 5.62 µM [falling, single point]
CCc1c(C)[nH]n(-c2nc(-c3cccc([N+](=O)[O-])c3)cs2)c1=O | 35.5 µM [rising, single point] | –
Cc1c(/C=N/NC(=O)c2ccccc2O)c2ccccn2c1C(=O)c1ccc(F)cc1 | – | 12.6 µM [falling, partial curve]
CCN(CC)C(=O)Cn1cc(S(=O)(=O)CC(=O)Nc2ccc3c(c2)OCCO3)c2ccccc21 | – | 0.282 µM [rising, partial curve]
O=[N+]([O-])c1ccc(NC(=S)N2CCOCC2)cc1 | 14.1 µM [rising, single point] | 12.6 µM [rising, single point]
CCOC(=O)c1nnn(CC(=O)N2N=C(c3cc(C)ccc3C)CC2c2ccc(OC)cc2)c1C(=O)OCC (centres undefined) | 12.6 µM [rising, partial curve] | 14.1 µM [rising, single point]
COc1cccc(C(=O)Nc2ccc(S(=O)(=O)N(Cc3ccccc3)c3ccccc3)cc2)c1 | 0.01 µM [falling, full curve, poor fit] | –
O=C(CSc1nnc2scc(-c3ccccc3)n12)Nc1nsc(-c2ccccc2)n1 | 14.1 µM [rising, partial curve, poor fit] | –
COc1ccc(C/C(N)=N/OC(=O)C(c2ccccc2)c2ccccc2)cc1OC | 0.708 µM [falling, full curve, poor fit] | 1.58 µM [falling, single point]
O=C1c2ccccc2NC(c2ccccn2)N1NS(=O)(=O)c1ccccc1 (centres undefined) | 2.82 µM [rising, partial curve, poor fit] | –
Cc1ccc(NC(=O)c2sc3ncnc(N(C)C4CCCCC4)c3c2C)cc1 | 6.31 µM [falling, full curve] | –
Cc1cc(C)c(S(=O)(=O)NCCc2csc3nc(-c4ccc(Cl)cc4)nn23)c(C)c1 | 22.4 µM [falling, single point] | 20 µM [falling, partial curve, poor fit]
Cc1ccccc1Cn1c(CN2CCC(C(=O)NCCN(C)C)CC2)cc2ccccc21 | 35.5 µM [falling, single point] | 35.5 µM [falling, single point]
N=C1C(c2nc3ccccc3s2)=C(O)CN1NC(=O)c1c[nH]c2ccccc12 | 0.00355 µM [falling, full curve, poor fit] | 0.00355 µM [falling, full curve, poor fit]
O=C(COC(=O)c1c2c(nc3ccccc13)CCCC2)Nc1ccc2c(c1)OCO2 | 11.2 µM [rising, partial curve] | –
CCN(CCCNC(=O)c1ccc(N2CCCC2=O)cc1)c1cccc(C)c1 | 12.6 µM [rising, partial curve] | 0.447 µM [rising, full curve, poor fit]
COc1ccc(CNC(=O)COC(=O)/C=C/c2ccc(Cl)cc2)cc1 | – | 0.00282 µM [falling, full curve]
COc1ccc(-c2cc(C(=O)N3CCN(c4ccccn4)CC3)c3ccccc3n2)cc1 | 0.562 µM [falling, full curve] | 0.562 µM [falling, full curve]
Cc1ccccc1NC(=O)CN1C(=O)C(C)(C)c2ccccc21 | – | 35.5 µM [falling, partial curve, poor fit]
C=CCN(c1ccccc1OC)S(=O)(=O)c1ccc(Cl)c(C(=O)Nc2ccc(N3CCOCC3)cc2)c1 | 14.1 µM [rising, single point] | –
CCOC(=O)c1ccccc1NC(=O)CSc1nnc(COc2ccccc2)n1CC | 7.94 µM [rising, partial curve, poor fit] | –
